Results reported in US10688131B2, “Peptides and scaffolds for use in immunotherapy against head and neck squamous cell carcinoma and other cancers” (Immatics Biotechnologies GmbH, priority 2016, dated 2020).
For part of these data: For expression read-outs the peptide stands for its source gene, whose mRNA was measured; the gene is not named for every peptide.

Columns and labels:
[1] = tested on: head and neck squamous cell carcinoma samples; assay: Identification and label-free LC-MS quantitation of HLA-presented peptides (presentation profile) on HNSCC versus normal tissues; design: species or system human; key: very highly over-presented on tumors compared to a panel of normal tissues (+++); highly over-presented on tumors compared to a panel of normal tissues (++); over-presented on tumors compared to a panel of normal tissues (+); conditions: presentation score: over-presentation on head and neck squamous cell carcinoma tumors compared to a panel of normal tissues
[2] = tested on: additional tumor types; assay: LC-MS presentation of peptides on additional tumor types versus normal tissues; design: species or system human; conditions: for Other relevant organs/diseases: additional tumor types where over-presented on more than 5% of measured tumor samples, or presented on more than 5% with ratio of geometric means tumor vs normal larger than 3 (Table 4A)
[3] = tested on: source genes in head and neck squamous cell carcinoma; assay: Expression profiling (RNASeq) of genes encoding the peptides; design: species or system human; key: very highly over-expressed in tumors compared to a panel of normal tissues (+++); highly over-expressed in tumors compared to a panel of normal tissues (++); over-expressed in tumors compared to a panel of normal tissues (+); conditions: expression score of source gene, tumors compared to a panel of normal tissues

| Substance | Peptide Presentation [1] | Other relevant organs/diseases [2] | Gene Expression [3] | Additional Entities ([2]; additional tumor types, same criteria, other normal tissue panel (Table 4B)) |
| --- | --- | --- | --- | --- |
| 53: peptide found in LGALS7 (gene looked up) (RLVEVGGDVQL; listed as Homo sapiens) [compound 53] | +++ | Esophageal Cancer, Urinary bladder cancer | +++ |  |
| 59: peptide found in DSP (gene looked up) (YLQNEVFGL; listed as Homo sapiens) [compound 59] |  | SCLC, NHL | +++ |  |
| 82: peptide found in DSG1 (gene looked up) (VLDINDNPPV; listed as Homo sapiens) [compound 82] | +++ | Melanoma | +++ |  |
| 86 (SLQERQVFL; listed as Homo sapiens) [compound 86] | +++ | NHL, Urinary bladder cancer |  |  |
| 88 (LMAPAPSTV; listed as Homo sapiens) [compound 88] | ++ | Brain Cancer, Esophageal Cancer, Urinary bladder cancer |  | Melanoma |
| 90 (TLNDGVVVQV; listed as Homo sapiens) [compound 90] | + | RCC, CLL, NHL, Esophageal Cancer, Urinary bladder cancer, Uterine Cancer |  |  |
| 91: peptide found in ODC1 (gene looked up) (MLFENMGAYTV; listed as Homo sapiens) [compound 91] | + | SCLC, CLL, NHL, Uterine Cancer | ++ |  |
